Data published in the supplement of paper PMC6119338.
± gives the standard deviation of the averaged measurements. The list shows a part of the results. Single values are uncertain, as repeats are few or missing.

system: Plasmodium berghei sporozoites; assay: residual sporozoite gliding motility relative to DMSO control; higher = less inhibition of motility; conditions: 10 µM; incubation time 30 min
Procedure: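 GFP-expressing Plasmodium berghei salivary gland sporozoites (about 2000 per well, 384-well plate, RPMI with 3% BSA) were incubated 30 min with MMV Malaria Box compounds at 10 uM, then imaged at 1 Hz for 30 s. Sporozoites moving more than one parasite length were counted manually and expressed as percentage residual motility relative to DMSO controls. The pilot screen was a single assay per compound; apparent hits were repeated up to two more times. 'No observable inhibition' in the pilot screen is encoded as inactive (>50% residual, active false), a coarse placeholder rather than a measured value.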

Structure (SMILES) | residual sporozoite gliding motility
CCCCCC(=O)N1c2ccccc2N=C2CC(c3ccc(OC)c(OC)c3)CC(O)=C2C1c1ccc(C(F)(F)F)cc1 (stereo not given) | > 50%
CCCCOc1ccc(C(=O)Nc2cc(C)on2)cc1 | > 50%
CCOC(=O)c1ccc2nc(-c3ccccc3)cc(O)c2c1 | > 50%
Cc1ccc(-c2cc(C(=O)Nc3ccc(S(=O)(=O)N4CCCCC4)cc3)[nH]n2)c(O)c1 | > 50%
COc1ccc(-c2cc3c(SCC(=O)Nc4cc(C(F)(F)F)ccc4Cl)nccn3n2)cc1 | > 50%
CCN(CC)CCn1c(=N)n(CC(O)c2ccc(Cl)c(Cl)c2)c2ccccc21 (stereo not given) | > 50%
Cc1ccc(S(=O)(=O)c2c(COC(=O)c3cccc(C)c3)c(-c3ccccc3)nn2C)cc1 | > 50%
COc1cc(SC)ccc1C(=O)N1CCCC(C)C1 (stereo not given) | > 50%
O=C1c2ccccc2-c2nnc(-c3ccc(Br)cc3)cc21 | > 50%
CN(C)c1ccc(N=Cc2ccc(N3CCOCC3)cc2)cc1 | > 50%
Cc1ccc(Nc2nc(NCCO)c3ccccc3n2)cc1C | > 50%
O=[N+]([O-])c1ccc(C=NNc2nc3ccccc3[nH]2)cc1 | > 50%
COc1ccc(Nc2nc(NCc3ccccc3)c3ccccc3n2)cc1 | > 50%
CCCCc1c(CCC)c(=N)c2ccccc2n1C | > 50%
CCOC(=O)C1CCN(C(=O)CN2C(=O)c3ccccc3C2c2c[nH]c3ccccc23)CC1 (stereo not given) | > 50%
Oc1c2c(nc3cc(-c4ccccc4)nn13)CCCC2 | > 50%
COc1cccc(-c2nn(C)c3sc(C(=O)NCCN4CCN(c5ccccc5F)CC4)cc23)c1 | > 50%
O=C(Nc1cccc(C(F)(F)F)c1)c1cc(Cl)ccc1O | 27.7 ± 7.4%
COc1ccc(C(=O)C2CC2c2ccc(Cl)cc2)cc1 (stereo not given) | > 50%
Cc1ccc(-c2cc3c(SCC(=O)Nc4cc(C(F)(F)F)ccc4Cl)nccn3n2)cc1 | > 50%

Molecules listed so far that have an NH in an aromatic ring:
Structure (SMILES) | residual sporozoite gliding motility
Cc1ccc(-c2cc(C(=O)Nc3ccc(S(=O)(=O)N4CCCCC4)cc3)[nH]n2)c(O)c1 | > 50%
O=[N+]([O-])c1ccc(C=NNc2nc3ccccc3[nH]2)cc1 | > 50%
CCOC(=O)C1CCN(C(=O)CN2C(=O)c3ccccc3C2c2c[nH]c3ccccc23)CC1 (stereo not given) | > 50%

Next entries follow.

Structure (SMILES) | residual sporozoite gliding motility
Oc1c(C(Nc2ccccn2)c2cccc(Oc3ccccc3)c2)ccc2cccnc12 (stereo not given) | > 50%
CCOc1ccc2nc(C)cc(Nc3ccc(Br)cc3)c2c1 | > 50%
CC1CCN(Cc2ccc(NC(=O)c3cc4ccc5cccnc5c4[nH]3)cc2)CC1 | > 50%
Oc1ccccc1CNCC12CC3CC(CC(C3)C1)C2 | > 50%
CCCN(CCC)CC(O)COc1ccccc1C(=O)Nc1ccccc1 (stereo not given) | > 50%
O=C(NCc1ccco1)C1CCN(S(=O)(=O)c2ccc(Cl)cc2)CC1 | > 50%
COc1cc(OC)cc(N2C(=O)N(Cc3ccc(C(C)(C)C)cc3)c3ccccc3S2(=O)=O)c1 | > 50%
COc1ccccc1CNC(=O)CCn1c(=O)[nH]c2ccsc2c1=O | > 50%
CCCCC(O)(c1ccc(Cl)cc1)C(CN1CCOCC1)c1ccc(Cl)cc1 (stereo not given) | > 50%
CCc1ccc(Nc2cc(C)nc3nc(C)nn23)cc1 | > 50%
CC(C)(C)CC(C)(C)NCC(O)COc1ccc(Cl)cc1Cl (stereo not given) | > 50%
O=C(Nc1ccc(F)c(Cl)c1)Nc1ccc(Cl)c(Cl)c1 | 22 ± 6.6%
COc1cccc(C(=O)NC(c2ccc(C)cc2)c2cc(Cl)c3cccnc3c2O)c1 (stereo not given) | > 50%
COc1ccc(-c2nonc2NC(=O)c2cccc(C)c2)cc1OC | > 50%
O=C(Nc1ccc(-c2nc3cc(NC(=O)c4ccc(Cl)cc4)ccc3[nH]2)cc1)c1ccc(Cl)cc1 | > 50%
COc1ccc(CCN2CCC(CN(C)Cc3cnn(-c4ccccc4)c3)CC2)cc1 | > 50%
CCCOCc1cc(CN2CCN(c3cccc(Cl)c3)CC2)c(O)c2ncccc12 | > 50%
COc1ccc(CNC2CCN(c3ccc(NC(=O)c4cccc(Cl)c4)cc3)CC2)cc1OC | > 50%
CCOc1ccc(CCNC(=O)c2cccs2)cc1OCC | > 50%
Clc1ccc2[nH]c3c(NCCCN4CCOCC4)ncnc3c2c1 | > 50%
